Results as given in the supplement of paper PMC10849652.
This is one part of the list.

Sequences of proteins named here, by UniProt entry; tags and fusion partners are left off. A change or cut given only in a name is not applied to a line headed by its entry.
UniProt Q86X10: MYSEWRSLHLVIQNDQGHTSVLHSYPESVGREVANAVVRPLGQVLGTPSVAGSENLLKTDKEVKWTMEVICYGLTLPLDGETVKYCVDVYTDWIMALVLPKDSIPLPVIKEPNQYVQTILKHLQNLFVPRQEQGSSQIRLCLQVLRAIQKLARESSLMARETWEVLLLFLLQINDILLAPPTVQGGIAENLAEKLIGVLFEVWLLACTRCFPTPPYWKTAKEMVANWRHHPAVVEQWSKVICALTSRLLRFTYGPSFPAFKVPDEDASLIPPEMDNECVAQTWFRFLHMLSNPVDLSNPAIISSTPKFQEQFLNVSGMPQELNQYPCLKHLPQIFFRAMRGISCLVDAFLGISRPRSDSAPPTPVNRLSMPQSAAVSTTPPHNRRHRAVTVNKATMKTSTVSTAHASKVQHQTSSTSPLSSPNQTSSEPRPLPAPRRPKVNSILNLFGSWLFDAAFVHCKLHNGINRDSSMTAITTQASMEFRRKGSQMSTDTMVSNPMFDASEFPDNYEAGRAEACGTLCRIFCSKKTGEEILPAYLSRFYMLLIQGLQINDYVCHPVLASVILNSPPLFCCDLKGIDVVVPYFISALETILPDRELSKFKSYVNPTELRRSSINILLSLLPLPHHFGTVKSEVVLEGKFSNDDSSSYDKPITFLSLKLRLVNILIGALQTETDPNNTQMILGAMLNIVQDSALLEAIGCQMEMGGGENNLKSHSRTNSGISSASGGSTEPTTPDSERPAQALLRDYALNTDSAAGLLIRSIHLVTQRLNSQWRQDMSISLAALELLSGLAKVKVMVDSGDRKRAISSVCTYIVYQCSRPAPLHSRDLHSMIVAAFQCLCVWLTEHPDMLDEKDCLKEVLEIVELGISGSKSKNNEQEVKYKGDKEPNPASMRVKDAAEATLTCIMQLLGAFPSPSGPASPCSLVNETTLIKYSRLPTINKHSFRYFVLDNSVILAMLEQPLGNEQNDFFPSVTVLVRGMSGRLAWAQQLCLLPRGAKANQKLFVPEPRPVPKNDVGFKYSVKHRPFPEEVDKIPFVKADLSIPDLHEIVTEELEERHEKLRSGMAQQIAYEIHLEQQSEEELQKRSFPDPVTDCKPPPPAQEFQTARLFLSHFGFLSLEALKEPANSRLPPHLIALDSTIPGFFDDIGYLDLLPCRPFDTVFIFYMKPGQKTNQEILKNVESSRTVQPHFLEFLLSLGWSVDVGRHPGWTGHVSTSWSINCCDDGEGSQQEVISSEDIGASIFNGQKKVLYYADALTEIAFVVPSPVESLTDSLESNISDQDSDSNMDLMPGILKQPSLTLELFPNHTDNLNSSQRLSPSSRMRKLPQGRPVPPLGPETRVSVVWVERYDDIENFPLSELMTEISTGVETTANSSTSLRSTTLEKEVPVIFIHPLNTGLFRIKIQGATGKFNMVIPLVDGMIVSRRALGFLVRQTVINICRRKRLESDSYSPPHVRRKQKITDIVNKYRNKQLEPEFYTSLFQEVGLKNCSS
UniProt Q9NP72: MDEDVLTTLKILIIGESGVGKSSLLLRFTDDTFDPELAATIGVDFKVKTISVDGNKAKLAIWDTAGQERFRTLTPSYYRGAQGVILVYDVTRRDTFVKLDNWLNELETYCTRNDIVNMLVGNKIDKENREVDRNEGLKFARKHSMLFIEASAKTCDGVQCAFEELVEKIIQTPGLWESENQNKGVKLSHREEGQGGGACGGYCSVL
UniProt Q9H6Z4: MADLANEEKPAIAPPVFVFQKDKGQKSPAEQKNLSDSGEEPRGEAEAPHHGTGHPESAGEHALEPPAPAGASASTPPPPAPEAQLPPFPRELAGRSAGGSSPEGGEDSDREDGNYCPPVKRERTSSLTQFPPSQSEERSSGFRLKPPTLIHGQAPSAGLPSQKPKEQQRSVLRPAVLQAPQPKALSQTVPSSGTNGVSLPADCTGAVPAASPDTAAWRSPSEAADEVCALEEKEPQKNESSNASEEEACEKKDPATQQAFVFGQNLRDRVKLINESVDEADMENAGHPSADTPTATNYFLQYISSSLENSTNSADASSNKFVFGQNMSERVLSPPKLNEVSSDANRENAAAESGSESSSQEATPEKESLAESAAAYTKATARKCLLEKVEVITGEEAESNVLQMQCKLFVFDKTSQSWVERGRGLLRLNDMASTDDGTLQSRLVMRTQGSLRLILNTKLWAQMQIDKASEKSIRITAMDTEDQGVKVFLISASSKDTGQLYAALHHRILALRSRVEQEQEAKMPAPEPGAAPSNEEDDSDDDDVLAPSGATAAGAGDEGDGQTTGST
UniProt O00391: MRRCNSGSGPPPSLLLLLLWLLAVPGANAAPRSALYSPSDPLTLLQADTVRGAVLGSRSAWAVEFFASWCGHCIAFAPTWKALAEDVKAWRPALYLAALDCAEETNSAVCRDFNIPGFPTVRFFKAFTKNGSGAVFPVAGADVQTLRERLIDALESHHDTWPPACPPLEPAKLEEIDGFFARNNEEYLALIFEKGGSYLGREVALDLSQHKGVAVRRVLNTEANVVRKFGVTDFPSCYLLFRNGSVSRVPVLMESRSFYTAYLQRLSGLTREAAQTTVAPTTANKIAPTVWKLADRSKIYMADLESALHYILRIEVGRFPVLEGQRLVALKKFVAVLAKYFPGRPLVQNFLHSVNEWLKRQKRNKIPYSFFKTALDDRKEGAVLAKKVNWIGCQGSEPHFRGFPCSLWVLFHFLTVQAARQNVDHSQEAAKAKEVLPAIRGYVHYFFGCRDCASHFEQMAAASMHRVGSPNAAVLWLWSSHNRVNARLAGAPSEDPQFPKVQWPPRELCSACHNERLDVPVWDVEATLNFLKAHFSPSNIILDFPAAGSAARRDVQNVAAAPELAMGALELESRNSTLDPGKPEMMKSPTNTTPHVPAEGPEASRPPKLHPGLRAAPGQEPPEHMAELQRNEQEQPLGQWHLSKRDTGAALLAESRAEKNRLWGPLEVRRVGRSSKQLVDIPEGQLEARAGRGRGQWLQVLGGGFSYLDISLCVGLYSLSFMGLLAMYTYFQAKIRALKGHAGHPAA
UniProt Q9UI14, whole entry, looked up: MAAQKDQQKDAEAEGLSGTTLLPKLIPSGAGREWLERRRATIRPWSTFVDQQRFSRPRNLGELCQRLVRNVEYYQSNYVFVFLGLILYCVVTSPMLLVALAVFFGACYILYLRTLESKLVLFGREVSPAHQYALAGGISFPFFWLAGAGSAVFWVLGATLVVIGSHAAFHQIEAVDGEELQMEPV
UniProt Q9BUV8: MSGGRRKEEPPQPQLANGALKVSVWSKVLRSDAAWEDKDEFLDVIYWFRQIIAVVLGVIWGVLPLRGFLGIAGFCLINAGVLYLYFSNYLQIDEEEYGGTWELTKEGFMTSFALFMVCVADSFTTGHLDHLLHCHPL
UniProt Q86YS3: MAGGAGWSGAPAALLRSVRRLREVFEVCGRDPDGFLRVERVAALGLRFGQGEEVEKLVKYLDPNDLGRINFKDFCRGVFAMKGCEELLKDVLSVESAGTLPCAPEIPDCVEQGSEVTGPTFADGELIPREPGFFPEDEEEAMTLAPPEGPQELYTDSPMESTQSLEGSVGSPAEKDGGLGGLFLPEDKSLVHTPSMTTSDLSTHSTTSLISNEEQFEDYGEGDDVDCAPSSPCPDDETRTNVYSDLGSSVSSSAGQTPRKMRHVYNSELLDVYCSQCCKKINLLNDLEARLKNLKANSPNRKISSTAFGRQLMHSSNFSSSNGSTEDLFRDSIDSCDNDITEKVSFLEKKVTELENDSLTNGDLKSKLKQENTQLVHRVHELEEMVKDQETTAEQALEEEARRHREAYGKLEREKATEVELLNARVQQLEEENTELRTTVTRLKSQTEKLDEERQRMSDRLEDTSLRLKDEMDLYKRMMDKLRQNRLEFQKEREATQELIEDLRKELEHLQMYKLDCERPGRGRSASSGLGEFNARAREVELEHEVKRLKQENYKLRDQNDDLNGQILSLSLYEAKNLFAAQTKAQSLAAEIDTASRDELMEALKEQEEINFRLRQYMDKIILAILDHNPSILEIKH
UniProt O95716: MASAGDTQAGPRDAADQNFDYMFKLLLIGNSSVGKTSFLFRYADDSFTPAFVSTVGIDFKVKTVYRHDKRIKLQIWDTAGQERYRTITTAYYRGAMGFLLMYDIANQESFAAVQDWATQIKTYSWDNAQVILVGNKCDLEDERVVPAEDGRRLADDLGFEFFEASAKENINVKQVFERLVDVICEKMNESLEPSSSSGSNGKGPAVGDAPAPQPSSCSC
UniProt Q6K0P9: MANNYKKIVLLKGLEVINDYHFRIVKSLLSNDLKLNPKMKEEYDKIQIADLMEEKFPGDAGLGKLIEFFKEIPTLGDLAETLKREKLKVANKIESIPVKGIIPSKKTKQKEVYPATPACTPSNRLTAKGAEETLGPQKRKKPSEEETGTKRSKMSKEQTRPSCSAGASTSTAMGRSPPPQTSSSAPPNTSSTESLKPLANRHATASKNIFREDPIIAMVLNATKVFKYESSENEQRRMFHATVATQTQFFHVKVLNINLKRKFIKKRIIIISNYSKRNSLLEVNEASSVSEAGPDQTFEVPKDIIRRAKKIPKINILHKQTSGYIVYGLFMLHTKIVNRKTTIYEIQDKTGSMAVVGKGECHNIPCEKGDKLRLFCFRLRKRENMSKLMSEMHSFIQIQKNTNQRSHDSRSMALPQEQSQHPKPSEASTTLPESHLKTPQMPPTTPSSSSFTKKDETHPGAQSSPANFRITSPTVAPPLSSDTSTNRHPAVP

How the values were obtained:
Assay in all cases: log2 fold change, soluble protein after heating vs DMSO (PISA); higher = thermal stabilisation; K562 lysate, 10 uM; active = over 0.2 and 3.5 SD of the protein, either way, in both replicates (recomputed)
alvocidib = compound: CN1CC[C@H](c2c(O)cc(O)c3c(=O)cc(-c4ccccc4Cl)oc23)[C@H](O)C1 [alvocidib]
Outline: (§1)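 To prepare the extract, K562 pellets were dounce-homogenised in PBS pH 7.4 with 1 mM MgCl2, giving crude material at 1 mg/mL protein. This was treated with 10 μM compound for 30 min, then heated in aliquots for 3 min over 48°C-58°C before pooling and addition of NP-40 to 0.5% at 4°C. Centrifugation at 21,000xg for 90 min left soluble protein in the supernatant, which TMTpro 16plex LC-MS/MS quantified with equalised channel sums. Results are log-two fold changes in thermal stability compared with solvent controls, from duplicates.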

[1] = compound: CNc1nc(-c2ccc3c(N)n[nH]c3c2)cc(N2C[C@@H](C(=O)NC3CCCCC3)CC[C@H]2C)n1
Outline: as §1

encorafenib = compound: COC(=O)N[C@@H](C)CNc1nccc(-c2cn(C(C)C)nc2-c2cc(Cl)cc(NS(C)(=O)=O)c2F)n1 [encorafenib]
Outline: as §1

[2] = compound: COC(=O)[C@H](CCSC)NC(=O)C1=C(C=C(C=C1)NC[C@H](CS)N)C2=CC=CC=C2
Outline: as §1

pictilisib = compound: CS(=O)(=O)N1CCN(Cc2cc3nc(-c4cccc5[nH]ncc45)nc(N4CCOCC4)c3s2)CC1 [pictilisib]
Outline: as §1

[3] = compound: C[C@H](C1=CC=C(C=C1)C(=O)NC2=C3C=CNC3=NC=C2)N
Outline: as §1

duvelisib = compound: C[C@H](Nc1ncnc2nc[nH]c12)c1cc2cccc(Cl)c2c(=O)n1-c1ccccc1 [duvelisib]
Outline: as §1

gandotinib = compound: Cc1cc(Nc2cc(CN3CCOCC3)c3nc(C)c(Cc4ccc(Cl)cc4F)n3n2)n[nH]1 [gandotinib]
Outline: as §1

tozasertib = compound: Cc1cc(Nc2cc(N3CCN(C)CC3)nc(Sc3ccc(NC(=O)C4CC4)cc3)n2)n[nH]1 [tozasertib]
Outline: as §1

bafetinib = compound: Cc1ccc(NC(=O)c2ccc(CN3CC[C@H](N(C)C)C3)c(C(F)(F)F)c2)cc1Nc1nccc(-c2cncnc2)n1 [bafetinib]
Outline: as §1

[4] = compound: Cc1cccc(CC(=O)N2CCc3c2ccc(-c2cn(C)c4ncnc(N)c24)c3F)n1
Outline: as §1

[5] = compound: CNC(=O)C1=CC=CC=C1NC2=NC(=NC=C2Cl)NC3=C(C=C(C=C3)N4CCOCC4)OC
Outline: as §1

defactinib = compound: CNC(=O)c1ccc(Nc2ncc(C(F)(F)F)c(NCc3nccnc3N(C)S(C)(=O)=O)n2)cc1 [defactinib]
Outline: as §1

alisertib = compound: COc1cc(Nc2ncc3c(n2)-c2ccc(Cl)cc2C(c2c(F)cccc2OC)=NC3)ccc1C(=O)O [alisertib]
Outline: as §1

[6] = compound: COc1cc2nc(-c3cc(F)ccc3O)nc(N[C@@H]3CNC[C@H]3C(C)(C)O)c2cc1OC
Outline: as §1

gefitinib = compound: COc1cc2ncnc(Nc3ccc(F)c(Cl)c3)c2cc1OCCCN1CCOCC1 [gefitinib]
Outline: as §1

lapatinib = compound: CS(=O)(=O)CCNCc1ccc(-c2ccc3ncnc(Nc4ccc(OCc5cccc(F)c5)c(Cl)c4)c3c2)o1 [lapatinib]
Outline: as §1

crizotinib = compound: C[C@@H](Oc1cc(-c2cnn(C3CCNCC3)c2)cnc1N)c1c(Cl)ccc(F)c1Cl [crizotinib]
Outline: as §1

doramapimod = compound: Cc1ccc(-n2nc(C(C)(C)C)cc2NC(=O)Nc2ccc(OCCN3CCOCC3)c3ccccc23)cc1 [doramapimod]
Outline: as §1

Tubastatin A = compound: CN1CCc2c(c3ccccc3n2Cc2ccc(C(=O)NO)cc2)C1 [Tubastatin A]
Outline: as §1

Measured: log2 fold change

RALGAPB isoform 3 (UniProt Q86X10)
inactive: alvocidib 0.161 | [1] 0.064 | encorafenib 0.073 | [2] 0.107 | pictilisib -0.018 | [3] -0.04 | duvelisib -0.396 | gandotinib -0.33 | tozasertib 0.027 | bafetinib -0.255 | [4] -0.026

RAB18 (UniProt Q9NP72)
inactive: alvocidib 0.115 | [5] 0.005 | defactinib 0 | [1] 0.026 | encorafenib 0.016 | [2] -0.011 | alisertib 0.12 | [6] -0.019 | gefitinib 0.06 | lapatinib -0.06 | pictilisib 0.008 | crizotinib 0.02 | [3] 0.098 | duvelisib -0.076 | gandotinib -0.045 | tozasertib 0.117 | doramapimod 0.021 | bafetinib -0.003 | [4] -0.056

RANBP3 isoform 2 (UniProt Q9H6Z4)
inactive: Tubastatin A 0.079 | defactinib -0.178 | [1] 0.004 | encorafenib 0.038 | [2] -0.066 | alisertib 0.081 | [6] 0.025 | gefitinib 0.017 | lapatinib -0.045 | pictilisib 0.044 | crizotinib 0.006 | duvelisib -0.121 | tozasertib -0.038 | doramapimod 0.027 | bafetinib -0.005

QSOX1 (UniProt O00391)
inactive: alvocidib -0.009 | [5] -0.04 | [1] 0.076 | encorafenib 0.126 | [2] 0.083 | crizotinib 0.098 | [3] -0.043 | duvelisib -0.24 | gandotinib 0.011 | tozasertib 0.086 | doramapimod 0.119 | [4] 0.02

RABAC1 (UniProt Q9UI14)
inactive: Tubastatin A 0.053 | [5] -0.01 | defactinib 0.06 | [1] 0.014 | encorafenib 0.108 | [2] 0.05 | alisertib -0.007 | [6] -0.005 | gefitinib -0.086 | lapatinib 0.003 | pictilisib -0.083 | crizotinib -0.037 | duvelisib 0.068 | tozasertib 0.041 | doramapimod -0.1 | bafetinib -0.04

RAB5IF isoform 5 (UniProt Q9BUV8)
active: [3] 0.753
inactive: alvocidib 0.249 | [5] 0 | defactinib -0.032 | [1] -0.011 | encorafenib 0.04 | [2] -0.125 | alisertib 0.15 | [6] -0.011 | gefitinib 0.131 | lapatinib -0.043 | pictilisib -0.122 | duvelisib -0.071 | gandotinib -0.234 | tozasertib 0 | bafetinib 0.221 | [4] -0.357

RAB11FIP4 (UniProt Q86YS3)
inactive: Tubastatin A -0.018 | [5] 0.011 | defactinib 0.021 | [1] -0.113 | encorafenib 0.195 | [2] 0.005 | alisertib -0.191 | [6] 0.001 | gefitinib 0.129 | lapatinib 0.155 | pictilisib 0.009 | duvelisib -0.103 | tozasertib -0.03 | bafetinib 0.028

RAP1B (UniProt F5GZG1)
inactive: alvocidib -0.118 | [5] 0.01 | defactinib -0.05 | [1] -0.104 | encorafenib 0.056 | [2] 0.124 | alisertib 0.059 | [6] 0.002 | gefitinib 0.071 | lapatinib 0.003 | pictilisib 0.02 | crizotinib -0.022 | [3] -0.313 | duvelisib 0.016 | gandotinib 0.127 | tozasertib 0.103 | doramapimod -0.115 | bafetinib -0.098 | [4] 0.201

RAB3D (UniProt O95716)
inactive: Tubastatin A 0.053 | [5] -0.002 | defactinib 0.096 | [1] 0.097 | encorafenib 0.109 | [2] -0.064 | [6] 0.02 | lapatinib 0.135 | crizotinib 0.029 | duvelisib -0.009 | tozasertib -0.021 | doramapimod 0.017

PYHIN1 (UniProt Q6K0P9)
inactive: Tubastatin A 0.053 | [1] 0.049 | alisertib -0.267 | [6] 0.058 | gefitinib -0.244 | lapatinib -0.136 | crizotinib -0.054 | duvelisib 0.089 | doramapimod -0.142
